From publication PMC10966536

System: NmPAL (PAS-ANTAR-LOV photoreceptor) (Nakamurella multipartita)
Test: RiboGreen interaction assay
Conditions: recombinant protein

Sequence | binding result (blue light) | binding result (darkness)
GCGGCCGCGUACAUCCAGCUGAUGAGUCCCAAAUAGGACAAAAGGUUCAGCUGCGAGCCUCCUGGAUUCCAGGCGGCCGC [OzS5M21 (cleavage-deficient, G12A)] | no binding | –
GCGGCCGCGUACAUCCAGCUGAUGAGUCCCAAAUAGGACAAAAGGUUCAGCAGCGAGCCUCCUGGAUUCCAGGCGGCCGC [OzS5 (cleavage-deficient, G12A)] | binds | binds more weakly
GCGGCCGCGUACAUCCAGCUGAUGAGUCCCAAAUAGGACAAAAGUUCAGCUGCGAGCUCCUGGAUUCCAGGCGGCCGC [OzS4M21 (cleavage-deficient, G12A)] | no binding | –
GCGGCCGCGUACAUCCAGCUGAUGAGUCCCAAAUAGGACAAAAGUUCAGCAGCGAGCUCCUGGAUUCCAGGCGGCCGC [OzS4 (cleavage-deficient, G12A)] | binds | binds more weakly

For at least one entry, the source does not settle the construct or the ends of the probe. A negative result means that nothing was seen under these conditions. A weaker result is weaker than the reference pair of the same experiment. At least one verdict was read from the data and is not stated in words by the source.
